# Data as given in the supplement of paper PMC8728848.
# This is one part of the list.
# B1: ERGIC1-EDTA (Homo sapiens), Q969X5 (protein)
# chain: MKFLVNVALVFMVVYISYIYAAAHMHHHHHHDYDIPTTENLYFQGSEVVNELYVDDPDKDSGGKIDVSLNISLPNLHCELVGLDIQDEMGRHEVGHIDNSMKIPLNNGAGCRFEGQFSINKVPGNFHVSTHSATAQPQNPDMTHVIHKLSFGDTLQVQNIHGAFNALGGADRLTSNPLASHDYILKIVPTVYEDKSGKQRYSYQYTVANKEYVAYSHTGRIIPAIWFRYDLSPITVKYTE
# What was measured:
# Assay in all cases: glycan array binding signal (z-score within array); higher = stronger binding
# Conditions in all cases: glycan notation: IUPAC condensed, linker removed
# [1] = target: Neu5Ac(a2-3)Gal(b1-4)GlcNAc(b1-3)[Neu5Ac(a2-3)Gal(b1-4)GlcNAc(b1-6)]GalNAc
# In short: (§1)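 Arrays were curated from the Consortium for Functional Glycomics database, 3228 in total, and kept only where the protein sequence was available. Binding is expressed as a within-array Z-score. This score was averaged across arrays of the same protein sequence at different concentrations or buffers and across linkers, and negative values can be read as non-binding.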
# [2] = target: Neu5Ac(a2-3)Gal(b1-4)GlcNAc(b1-6)GalNAc
# In short: as §1
# [3] = target: Neu5Ac(a2-3)Gal(b1-4)GlcNAc(b1-6)[Gal(b1-3)]GalNAc
# In short: as §1
# [4] = target: Neu5Ac(a2-3)Gal(b1-4)GlcNAc(b1-6)[Neu5Ac(a2-3)Gal(b1-3)]GalNAc
# In short: as §1
# [5] = target: Neu5Ac(a2-3)Gal(b1-4)GlcNAc6S
# In short: as §1
# [6] = target: Neu5Ac(a2-3)Gal(b1-4)[Fuc(a1-3)]GlcNAc
# In short: as §1
# [7] = target: Neu5Ac(a2-3)Gal(b1-4)[Fuc(a1-3)]GlcNAc(b1-2)Man
# In short: as §1
# [8] = target: Neu5Ac(a2-3)Gal(b1-4)[Fuc(a1-3)]GlcNAc(b1-3)Gal
# In short: as §1
# [9] = target: Neu5Ac(a2-3)Gal(b1-4)[Fuc(a1-3)]GlcNAc(b1-3)Gal(b1-4)GlcNAc
# In short: as §1
# [10] = target: Neu5Ac(a2-3)Gal(b1-4)[Fuc(a1-3)]GlcNAc(b1-3)Gal(b1-4)[Fuc(a1-3)]GlcNAc(b1-3)Gal(b1-4)[Fuc(a1-3)]GlcNAc
# In short: as §1
# [11] = target: Neu5Ac(a2-3)Gal(b1-4)[Fuc(a1-3)]GlcNAc(b1-3)GalNAc
# In short: as §1
# [12] = target: Neu5Ac(a2-3)Gal(b1-4)[Fuc(a1-3)]GlcNAc(b1-6)[Gal(b1-3)]GalNAc
# In short: as §1
# [13] = target: Neu5Ac(a2-3)Gal(b1-4)[Fuc(a1-3)]GlcNAc(b1-6)[Neu5Ac(a2-3)Gal(b1-3)]GalNAc
# In short: as §1
# [14] = target: Neu5Ac(a2-3)Gal(b1-4)[Fuc(a1-3)]GlcNAc6S
# In short: as §1
# [15] = target: Neu5Ac(a2-3)Gal6S(b1-4)GlcNAc
# In short: as §1
# [16] = target: Neu5Ac(a2-3)Gal6S(b1-4)[Fuc(a1-3)]GlcNAc
# In short: as §1
# Neu5Ac(a2-3)GalNAc = target: Neu5Ac(a2-3)GalNAc
# In short: as §1
# [17] = target: Neu5Ac(a2-3)GalNAc(b1-4)GlcNAc
# In short: as §1
# [18] = target: Neu5Ac(a2-3)[GalNAc(b1-4)]Gal(b1-4)Glc
# In short: as §1
# [19] = target: Neu5Ac(a2-3)[GalNAc(b1-4)]Gal(b1-4)GlcNAc
# In short: as §1
# [20] = target: Neu5Ac(a2-3)[GalNAc(b1-4)]Gal(b1-4)GlcNAc(b1-3)GalNAc
# In short: as §1
# [21] = target: Neu5Ac(a2-3)[Neu5Ac(a2-6)]GalNAc
# In short: as §1
# Neu5Ac(a2-6)Gal = target: Neu5Ac(a2-6)Gal
# In short: as §1
# [22] = target: Neu5Ac(a2-6)Gal(b1-3)GlcNAc(b1-3)[Gal(b1-4)GlcNAc(b1-6)]Gal(b1-4)Glc
# In short: as §1
# Neu5Ac(a2-6)Gal(b1-4)Glc = target: Neu5Ac(a2-6)Gal(b1-4)Glc
# In short: as §1
# [23] = target: Neu5Ac(a2-6)Gal(b1-4)GlcNAc
# In short: as §1
# [24] = target: Neu5Ac(a2-6)Gal(b1-4)GlcNAc(b1-2)Man
# In short: as §1
# [25] = target: Neu5Ac(a2-6)Gal(b1-4)GlcNAc(b1-2)Man(a1-3)Man(b1-4)GlcNAc(b1-4)GlcNAc
# In short: as §1
# [26] = target: Neu5Ac(a2-6)Gal(b1-4)GlcNAc(b1-2)Man(a1-3)[Gal(b1-4)GlcNAc(b1-2)Man(a1-6)]Man(b1-4)GlcNAc(b1-4)GlcNAc
# In short: as §1
# [27] = target: Neu5Ac(a2-6)Gal(b1-4)GlcNAc(b1-2)Man(a1-3)[GlcNAc(b1-2)Man(a1-6)]Man(b1-4)GlcNAc(b1-4)GlcNAc
# In short: as §1
# [28] = target: Neu5Ac(a2-6)Gal(b1-4)GlcNAc(b1-2)Man(a1-3)[GlcNAc(b1-4)][Neu5Ac(a2-6)Gal(b1-4)GlcNAc(b1-2)Man(a1-6)]Man(b1-4)GlcNAc(b1-4)GlcNAc
# In short: as §1
binder,measurement,setting,value
B1,glycan array binding signal (z-score),[1],1.09
same,glycan array binding signal (z-score),[2],-0.324
same,glycan array binding signal (z-score),[3],-0.533
same,glycan array binding signal (z-score),[4],-0.285
same,glycan array binding signal (z-score),[5],0.354
same,glycan array binding signal (z-score),[6],0.226
same,glycan array binding signal (z-score),[7],-0.895
same,glycan array binding signal (z-score),[8],-1.23
same,glycan array binding signal (z-score),[9],2.27
same,glycan array binding signal (z-score),[10],-1.07
same,glycan array binding signal (z-score),[11],3
same,glycan array binding signal (z-score),[12],0.719
same,glycan array binding signal (z-score),[13],1.03
same,glycan array binding signal (z-score),[14],-0.552
same,glycan array binding signal (z-score),[15],-0.233
same,glycan array binding signal (z-score),[16],-1.17
same,glycan array binding signal (z-score),Neu5Ac(a2-3)GalNAc,-0.644
same,glycan array binding signal (z-score),[17],-0.941
same,glycan array binding signal (z-score),[18],-0.417
same,glycan array binding signal (z-score),[19],0.563
same,glycan array binding signal (z-score),[20],0.21
same,glycan array binding signal (z-score),[21],-0.668
same,glycan array binding signal (z-score),Neu5Ac(a2-6)Gal,1.44
same,glycan array binding signal (z-score),[22],0.481
same,glycan array binding signal (z-score),Neu5Ac(a2-6)Gal(b1-4)Glc,0.01
same,glycan array binding signal (z-score),[23],0.443
same,glycan array binding signal (z-score),[24],0.07
same,glycan array binding signal (z-score),[25],-0.277
same,glycan array binding signal (z-score),[26],-0.447
same,glycan array binding signal (z-score),[27],0.41
same,glycan array binding signal (z-score),[28],-1.28

# Some of the entries above in a different format:
binder | measurement | setting | value
B1 | glycan array binding signal (z-score) | [6] | 0.226
same | glycan array binding signal (z-score) | [26] | -0.447
